Test results from PMC11963356.
Results are given in words; binding and its absence hold for the method and conditions named. Binding seen in cells or lysates may run through a third protein. Some results given as binding are weak or reduced against the parent protein; the word gives no strength. Where a sequence is shown, tags or fusion partners need not be part of it.

Molecular target: T1, GST-FOXC1 fusion protein (UniProt Q12948)
T1 sequence: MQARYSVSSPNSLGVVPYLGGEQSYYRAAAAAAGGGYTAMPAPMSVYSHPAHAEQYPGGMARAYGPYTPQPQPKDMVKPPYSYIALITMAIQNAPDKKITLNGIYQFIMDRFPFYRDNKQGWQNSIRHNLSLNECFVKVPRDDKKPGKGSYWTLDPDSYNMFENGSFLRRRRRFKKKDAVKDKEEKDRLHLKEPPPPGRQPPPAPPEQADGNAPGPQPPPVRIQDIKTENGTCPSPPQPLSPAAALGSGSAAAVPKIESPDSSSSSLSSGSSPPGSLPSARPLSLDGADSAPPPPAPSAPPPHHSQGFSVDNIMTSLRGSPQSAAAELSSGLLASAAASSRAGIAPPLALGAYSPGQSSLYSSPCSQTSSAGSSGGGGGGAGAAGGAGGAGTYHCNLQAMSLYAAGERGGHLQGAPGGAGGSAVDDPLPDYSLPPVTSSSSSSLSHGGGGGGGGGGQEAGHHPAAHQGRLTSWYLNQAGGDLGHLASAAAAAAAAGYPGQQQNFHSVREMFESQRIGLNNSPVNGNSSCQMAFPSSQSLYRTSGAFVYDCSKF
Test: pull-down; GST-tagged bait from E. coli BL21 lysate held on magnetic beads and washed; HEK-293T cell lysate added as capture protein lysate; eluate read by western blot for USP15 and FOXC1; only the target purified

- binding: binds
B1: Ubiquitin-specific protease 15 (enzyme, UniProt Q9Y4E8 1-981)
chain: MAEGGAADLDTQRSDIATLLKTSLRKGDTWYLVDSRWFKQWKKYVGFDSWDKYQMGDQNVYPGPIDNSGLLKDGDAQSLKEHLIDELDYILLPTEGWNKLVSWYTLMEGQEPIARKVVEQGMFVKHCKVEVYLTELKLCENGNMNNVVTRRFSKADTIDTIEKEIRKIFSIPDEKETRLWNKYMSNTFEPLNKPDSTIQDAGLYQGQVLVIEQKNEDGTWPRGPSTPKSPGASNFSTLPKISPSSLSNNYNNMNNRNVKNSNYCLPSYTAYKNYDYSEPGRNNEQPGLCGLSNLGNTCFMNSAIQCLSNTPPLTEYFLNDKYQEELNFDNPLGMRGEIAKSYAELIKQMWSGKFSYVTPRAFKTQVGRFAPQFSGYQQQDCQELLAFLLDGLHEDLNRIRKKPYIQLKDADGRPDKVVAEEAWENHLKRNDSIIVDIFHGLFKSTLVCPECAKISVTFDPFCYLTLPLPMKKERTLEVYLVRMDPLTKPMQYKVVVPKIGNILDLCTALSALSGIPADKMIVTDIYNHRFHRIFAMDENLSSIMERDDIYVFEININRTEDTEHVIIPVCLREKFRHSSYTHHTGSSLFGQPFLMAVPRNNTEDKLYNLLLLRMCRYVKISTETEETEGSLHCCKDQNINGNGPNGIHEEGSPSEMETDEPDDESSQDQELPSENENSQSEDSVGGDNDSENGLCTEDTCKGQLTGHKKRLFTFQFNNLGNTDINYIKDDTRHIRFDDRQLRLDERSFLALDWDPDLKKRYFDENAAEDFEKHESVEYKPPKKPFVKLKDCIELFTTKEKLGAEDPWYCPNCKEHQQATKKLDLWSLPPVLVVHLKRFSYSRYMRDKLDTLVDFPINDLDMSEFLINPNAGPCRYNLIAVSNHYGGMGGGHYTAFAKNKDDGKWYYFDDSSVSTASEDQIVSKAAYVLFYQRQDTFSGTGFFPLDRETKGASAATGIPLESDEDSNDNDNDIENENCMHTN
